Pks13 thioesterase: 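Enzyme assay of the thioesterase domain of polyketide synthase 13; the read-out is not stated. Target: Polyketide synthase Pks13, Mycobacterium tuberculosis (UniProt I6X8D2). Concentration: 30 µM. The record gives no direction; the compounds picked for IC50 retests had high values, so higher reads as stronger inhibition. Of about 67,000 compounds tested this way, about 300 (0.46%) reached 50% or more in at least one test.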
LiHisRS: 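Histidine-tRNA ligase, Leishmania infantum (UniProt A4I591). Enzyme assay of histidyl-tRNA synthetase; the read-out is not stated. Concentration: 30 µM. Higher reads as stronger inhibition (inferred: compounds with an IC50 in retests scored well above the rest). The assay is labelled LdHisRS but filed under L. infantum. About 69,000 compounds were tested under these conditions; 0.6% (about 410) showed 50% or more at least once.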

Chains of the proteins cited; added tags and fusions are not shown. Residues count along the entry.
UniProt I6X8D2, whole entry: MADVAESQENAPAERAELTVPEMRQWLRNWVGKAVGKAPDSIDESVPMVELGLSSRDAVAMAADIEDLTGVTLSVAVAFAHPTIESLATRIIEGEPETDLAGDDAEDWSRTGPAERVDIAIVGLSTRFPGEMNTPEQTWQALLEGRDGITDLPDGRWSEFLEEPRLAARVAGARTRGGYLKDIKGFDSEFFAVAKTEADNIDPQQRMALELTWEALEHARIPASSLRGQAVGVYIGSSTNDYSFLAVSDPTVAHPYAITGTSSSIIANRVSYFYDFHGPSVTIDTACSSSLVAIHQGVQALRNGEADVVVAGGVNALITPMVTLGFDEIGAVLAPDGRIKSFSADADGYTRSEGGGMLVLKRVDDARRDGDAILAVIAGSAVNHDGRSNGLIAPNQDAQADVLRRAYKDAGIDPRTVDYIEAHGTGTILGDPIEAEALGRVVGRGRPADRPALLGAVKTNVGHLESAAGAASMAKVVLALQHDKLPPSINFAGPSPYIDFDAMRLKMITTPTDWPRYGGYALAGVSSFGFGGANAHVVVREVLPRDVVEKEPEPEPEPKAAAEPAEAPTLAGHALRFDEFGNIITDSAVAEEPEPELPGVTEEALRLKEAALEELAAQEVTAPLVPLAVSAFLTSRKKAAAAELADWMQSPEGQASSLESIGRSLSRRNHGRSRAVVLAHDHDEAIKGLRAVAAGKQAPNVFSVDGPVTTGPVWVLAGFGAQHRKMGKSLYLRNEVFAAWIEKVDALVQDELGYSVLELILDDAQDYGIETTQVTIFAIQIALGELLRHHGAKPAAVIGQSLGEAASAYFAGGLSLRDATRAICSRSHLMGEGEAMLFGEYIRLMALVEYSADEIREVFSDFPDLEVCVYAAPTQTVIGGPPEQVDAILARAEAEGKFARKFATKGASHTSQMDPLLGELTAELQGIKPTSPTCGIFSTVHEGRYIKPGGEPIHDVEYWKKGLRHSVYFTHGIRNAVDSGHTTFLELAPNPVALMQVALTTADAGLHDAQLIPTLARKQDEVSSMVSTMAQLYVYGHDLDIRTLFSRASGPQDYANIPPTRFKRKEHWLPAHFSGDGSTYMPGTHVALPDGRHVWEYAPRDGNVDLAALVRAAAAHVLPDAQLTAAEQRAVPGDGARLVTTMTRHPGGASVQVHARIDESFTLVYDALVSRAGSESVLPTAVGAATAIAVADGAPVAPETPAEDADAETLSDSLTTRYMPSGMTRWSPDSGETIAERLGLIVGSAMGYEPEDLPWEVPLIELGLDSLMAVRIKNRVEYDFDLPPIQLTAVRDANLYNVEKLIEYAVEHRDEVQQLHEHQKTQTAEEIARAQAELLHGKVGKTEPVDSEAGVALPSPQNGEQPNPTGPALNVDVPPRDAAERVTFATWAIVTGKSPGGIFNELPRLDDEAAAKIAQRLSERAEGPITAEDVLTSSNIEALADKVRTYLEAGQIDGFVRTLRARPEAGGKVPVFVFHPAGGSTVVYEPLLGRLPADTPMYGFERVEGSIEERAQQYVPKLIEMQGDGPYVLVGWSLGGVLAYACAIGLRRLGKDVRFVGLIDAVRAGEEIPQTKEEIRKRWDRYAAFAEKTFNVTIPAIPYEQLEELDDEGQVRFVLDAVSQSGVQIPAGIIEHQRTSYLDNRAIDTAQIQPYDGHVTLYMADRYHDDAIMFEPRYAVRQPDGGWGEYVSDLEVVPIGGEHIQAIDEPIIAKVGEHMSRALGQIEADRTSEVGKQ
UniProt A4I591, 1-473: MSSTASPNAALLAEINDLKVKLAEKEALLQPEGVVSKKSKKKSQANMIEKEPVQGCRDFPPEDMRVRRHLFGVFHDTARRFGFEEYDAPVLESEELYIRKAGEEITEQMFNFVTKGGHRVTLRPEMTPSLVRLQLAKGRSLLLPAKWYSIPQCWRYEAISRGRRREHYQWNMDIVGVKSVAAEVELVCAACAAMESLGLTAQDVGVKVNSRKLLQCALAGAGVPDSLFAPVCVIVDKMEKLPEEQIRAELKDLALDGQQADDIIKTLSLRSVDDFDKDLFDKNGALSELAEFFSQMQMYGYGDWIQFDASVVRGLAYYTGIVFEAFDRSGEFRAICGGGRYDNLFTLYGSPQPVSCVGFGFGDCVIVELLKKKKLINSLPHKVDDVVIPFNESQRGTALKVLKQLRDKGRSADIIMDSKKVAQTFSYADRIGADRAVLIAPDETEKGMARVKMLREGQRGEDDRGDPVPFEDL

Values are the deposited “Percent Effect”, in %.
How 0% and 100% were set is not recorded. Most values in the screen are low, and negative values occur.
This is an unselected part of the compounds tested.

Cc1ccc(C(=O)N2CCn3cnc(COCC4CC4)c3C2)cn1 read Pks13 thioesterase: -0.1074%; LiHisRS: 15.04%.
CCS(=O)(=O)N1CCC2(CN(c3cccc(F)c3)C(=O)CN2C)C1 (stereo not shown) read Pks13 thioesterase: -7.128%; LiHisRS: 0%.
CCN(CCCNC(=O)c1cc2cccc(F)c2o1)S(C)(=O)=O read Pks13 thioesterase: 32.11%; LiHisRS: 6.25%.
CC(C)OCCCNC(=O)CS(=O)(=O)Cc1ccc(Cl)c(Cl)c1 read Pks13 thioesterase: 1.129%; LiHisRS: -19.18%.
CCc1noc(C(C)N2CCCN(Cc3noc(C4CC4)n3)CC2)n1 (stereo not shown) read Pks13 thioesterase: -11.86%; LiHisRS: 13.33%.
CCN(CC)Cc1cc(C(=O)N2CCCC(CC)(C(=O)O)C2)c(C)o1 (stereo not shown) read LiHisRS: -22.37%.
CCn1nnc2c1C(COCCN(C)C)CN(S(C)(=O)=O)C2 (stereo not shown) read Pks13 thioesterase: -45.28%; LiHisRS: 19.3%.
CCOCC(O)CN1CCN(C(=O)C2CCCCC2)CC1 (stereo not shown) read Pks13 thioesterase: -9.204%; LiHisRS: 4.386%.
Cn1nnc2c(N3CC(C(=O)NCCC4=CCCCC4)C3)ncnc21 read Pks13 thioesterase: 0.5578%; LiHisRS: 14.63%.
CCSc1ncccc1C(=O)NCc1ccc(N(C)C)cc1 read Pks13 thioesterase: 17.82%; LiHisRS: 9.901%.
FC(F)(F)c1cccc(OC2CCN(Cc3c[nH]cn3)CC2)c1 read Pks13 thioesterase: 25.53%; LiHisRS: 13.33%.
O=C(NCc1ccccn1)c1nnn(-c2ccc(Br)cc2)n1 read Pks13 thioesterase: 5.628%; LiHisRS: 24.27%.
Cc1ccc(N2CC[C@H]3OCC[C@@]3(C(=O)N(C)C)C2)nn1 read Pks13 thioesterase: -2.561%; LiHisRS: 0%.
CCC1(CC)CC(=O)N(CC(O)c2cc(F)ccc2F)C1=O (stereo not shown) read Pks13 thioesterase: -5.035%; LiHisRS: 8.333%.
CCOC(=O)C1CN(S(C)(=O)=O)Cc2ncn(CC)c21 (stereo not shown) read Pks13 thioesterase: -19.26%; LiHisRS: 22%.
Cc1nc2cc(=O)[nH]n2c(C)c1CNC(=O)C(C)(C)c1ccccc1 read Pks13 thioesterase: -35.85%; LiHisRS: 32.39%.
CCCn1ncc(C(=O)N2CCN(C3CCSCC3)CC2)c1C read Pks13 thioesterase: -19.42%; LiHisRS: 5.263%.
Fc1ccc(OCCCNC2=NCCN2)cc1 read Pks13 thioesterase: 0.2083%; LiHisRS: 8.235%.
O=C(CCOc1ccccc1F)N1CCOCC1 read Pks13 thioesterase: 10.2%; LiHisRS: 20.48%.
CS(=O)(=O)N1CCC(NC(=O)COc2cccc(Cl)c2)CC1 read Pks13 thioesterase: -6.042%; LiHisRS: 11.97%.
CS(=O)(=O)C1=C(O)C(=O)N(c2ccccc2)C1c1ccccc1 (stereo not shown) read Pks13 thioesterase: -0.2575%; LiHisRS: 9.859%.
COc1ccc(CN2CC[C@@H](O)[C@@H]2Cc2cnn(C)c2)cc1 read Pks13 thioesterase: -50.96%; LiHisRS: -6%.
COCCN(C)C[C@@H]1CN(C(=O)c2ccc(OC)c(F)c2)C[C@@H]1CO read Pks13 thioesterase: -2.505%; LiHisRS: 11.24%.
CCCc1noc(CN2CCCC2c2c(C)nn(C)c2OC)n1 (stereo not shown) read Pks13 thioesterase: -2.295%; LiHisRS: 6.757%.
Cc1cccc(CCC(=O)Nc2ccnn2C2CCS(=O)(=O)C2)c1 (stereo not shown) read Pks13 thioesterase: -4.445%; LiHisRS: 11.71%.
CCS(=O)(=O)N1CCc2c(COC)cncc2C1 read Pks13 thioesterase: -47.21%; LiHisRS: 4.545%.
CCS(=O)(=O)NC(CCSC)C(=O)Nc1ccccc1C (stereo not shown) read Pks13 thioesterase: 2.463%; LiHisRS: 19.75%.
COCCC1CN(Cc2cn(CCC(N)=O)c3ccccc23)CCO1 (stereo not shown) read Pks13 thioesterase: -21.63%; LiHisRS: 3.419%.
COc1ccc2c(c1)C(=O)NC1(CC2)CCN(Cc2ccncc2)C1 (stereo not shown) read Pks13 thioesterase: -5.716%; LiHisRS: 10.14%.
COCCn1ccc2c(C(=O)O)cccc21 read Pks13 thioesterase: -4.792%; LiHisRS: 10%.
CNc1ncc(CN(C)C(=O)c2cccc(Cn3cccn3)c2)cn1 read Pks13 thioesterase: 118.3%; LiHisRS: 12.9%.
Cc1ccc(C2(CN3CCN(Cc4cnc(C)n4C)CC3)CC2)cc1 read Pks13 thioesterase: -23.22%; LiHisRS: 2.837%.
Cc1ccc2c(c1)C(NC(=O)N(C)C)CC21CCN(C)CC1 (stereo not shown) read Pks13 thioesterase: -1.685%; LiHisRS: 1.389%.
O=C(c1cnc(C2CC2)s1)N1CCCC(n2cccn2)C1 (stereo not shown) read Pks13 thioesterase: -3.364%; LiHisRS: 14.29%.
Cc1ncsc1CCN(C)C(=O)c1c(O)cccc1O read Pks13 thioesterase: 3.118%; LiHisRS: 11.46%.
Cc1cccc(CN2CCc3c(CNC(=O)CC#N)nn(C)c3C2)n1 read LiHisRS: 38.46%.

Repeated from the top, 3 entries:

For Cc1ccc(C(=O)N2CCn3cnc(COCC4CC4)c3C2)cn1 the result was Pks13 thioesterase: -0.1074%; LiHisRS: 15.04%.
For CCS(=O)(=O)N1CCC2(CN(c3cccc(F)c3)C(=O)CN2C)C1 (stereo not shown) the result was Pks13 thioesterase: -7.128%; LiHisRS: 0%.
For CCN(CCCNC(=O)c1cc2cccc(F)c2o1)S(C)(=O)=O the result was Pks13 thioesterase: 32.11%; LiHisRS: 6.25%.

The values are deposited in ChEMBL (CHEMBL3988442, “University of Dundee, Small-Polar-MMV Screening Library” (2021)).